Assay [1] has as its target FLAG (F)-tagged hsp90α (wild type) (UniProt P07900). Briefly: co-immunoprecipitation in HEK293 cells.
Assay [2] has the same target. Briefly: co-IP from transfected HEK293 cells: anti-HA.11 immunoprecipitates immunoblotted with anti-F.

These are yes or no findings as the source states them, for the method shown. Binding seen in cells or lysates may run through a third protein. Some binding calls cover weakened binding; strength is not graded here.

Consider “HA-tagged p300 (from UniProt Q09472 1-2414) (enzyme)”, for which the binding entry in assay [1] and in assay [2] was “binds” throughout.

The values are drawn from patent US20100111943A1, “COMPOSITIONS AND METHODS FOR INHIBITING CANCER METASTASIS” (Medical College of Georgia Research Institute, Inc, priority 2007, published 2010).
